HELM strings list residues between dots; [ac] is acetyl, [am] amide, other brackets name non-standard units.

Experimental findings from patent US5721213A (Nippon Steel Corporation, priority 1993, dated 1998) are described below.

The series in a line: general procedure: Fmoc solid-phase peptide synthesis; p-Alkoxybenzyl alcohol-type resin. The settings on record: whole synthesis, scale 0.25 mmol, acetate.

Substance PEPTIDE1{P.S.A.[Sar].D.W}$$$$V2.0 gave an isolated mass of 34 mg.
